This note sets out measurements from publication PMC4906373.

In test [1] the target is T1, DENR (density regulated protein), endogenous mouse (mouse (endogenous in brain)) (UniProt Q9CQJ6).
T1 sequence: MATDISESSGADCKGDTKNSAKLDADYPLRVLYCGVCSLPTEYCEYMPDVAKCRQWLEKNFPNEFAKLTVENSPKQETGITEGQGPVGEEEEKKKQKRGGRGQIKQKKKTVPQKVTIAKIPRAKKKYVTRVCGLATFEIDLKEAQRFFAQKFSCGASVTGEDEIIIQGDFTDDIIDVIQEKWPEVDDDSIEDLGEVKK
Kind of test: co-IP; neonatal P0 mouse brain lysate; immunoprecipitation with goat anti-MCTS1 antibody (2 mg total protein) or with DENR antibody, overnight at 4°C, protein A Sepharose beads; control with preimmunized sera; immunoblot.

Test [2] has as its target T2, MCTS1, endogenous mouse (mouse (endogenous in brain)) (UniProt Q9DB27).
T2 sequence: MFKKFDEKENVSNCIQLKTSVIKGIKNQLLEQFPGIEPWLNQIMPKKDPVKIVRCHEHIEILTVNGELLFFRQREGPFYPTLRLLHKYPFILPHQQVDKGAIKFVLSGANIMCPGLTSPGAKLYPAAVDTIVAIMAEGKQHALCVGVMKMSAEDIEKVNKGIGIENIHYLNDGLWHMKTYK
The test is described as above.

No constants are given. Whether binding was seen depends on the method and setting. In cells and extracts the contact can be indirect. Some entries that bind do so weakly or less than the wild type.

B1: MCTS1, endogenous mouse (protein, UniProt Q9DB27 1-181)
chain: T2 sequence
As for B1, the binding result in test [1] was “binds”.

B2: DENR (density regulated protein), endogenous mouse (protein, UniProt Q9CQJ6 1-198)
chain: T1 sequence
Take B2: the binding result in test [2] is listed as “binds”.
